Results from paper PMC6357195.

Biological target: T1, tGFP-tagged PCDHB13 (protocadherin-β13) (human) (UniProt Q9Y5F0)
T1 sequence: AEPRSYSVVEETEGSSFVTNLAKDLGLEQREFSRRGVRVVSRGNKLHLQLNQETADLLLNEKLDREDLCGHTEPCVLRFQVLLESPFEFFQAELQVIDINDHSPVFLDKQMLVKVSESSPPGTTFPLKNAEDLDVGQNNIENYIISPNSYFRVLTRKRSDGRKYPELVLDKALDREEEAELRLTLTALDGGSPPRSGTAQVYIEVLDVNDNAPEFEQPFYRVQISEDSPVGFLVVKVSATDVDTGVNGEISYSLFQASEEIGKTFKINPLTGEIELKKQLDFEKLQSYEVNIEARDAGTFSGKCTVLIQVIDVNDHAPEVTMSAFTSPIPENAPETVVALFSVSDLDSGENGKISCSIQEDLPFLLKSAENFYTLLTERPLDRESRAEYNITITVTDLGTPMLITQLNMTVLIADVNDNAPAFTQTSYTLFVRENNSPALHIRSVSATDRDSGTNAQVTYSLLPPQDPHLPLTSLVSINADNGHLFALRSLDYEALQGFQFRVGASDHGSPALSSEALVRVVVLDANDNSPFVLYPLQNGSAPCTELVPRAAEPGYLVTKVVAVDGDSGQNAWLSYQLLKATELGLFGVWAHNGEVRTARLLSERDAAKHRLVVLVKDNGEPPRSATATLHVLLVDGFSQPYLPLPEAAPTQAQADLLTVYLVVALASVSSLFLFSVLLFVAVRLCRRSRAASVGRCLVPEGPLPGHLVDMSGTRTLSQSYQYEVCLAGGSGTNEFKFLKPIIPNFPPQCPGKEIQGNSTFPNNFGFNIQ
Assay: co-IP; 500 μg lysate of A549 cells overexpressing PCDHB13-tGFP or control tGFP; IP with anti-tGFP magnetic beads; eluates blotted for PCDHB13 and α-Tubulin

binding: binds
Substance: α-Tubulin (human (endogenous in A549))

These are yes or no findings as the source states them, for the method shown. In cells and extracts the contact can be indirect. A result given as binding can be weak or reduced; the word gives no strength. Sequences can lack the tags named with a protein.
